According to the supplement of paper PMC10735217:
Counter-ions that a name gives are not always drawn. The list shows a part of the results. This data set is noisy: repeats of one test often differ as much as different tests do.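 In a drug-repurposing library screen, luminescence reads luciferase driven by eight TEAD-binding elements, stably integrated into human kidney-derived cells. Compounds scoring over five robust Z scores above the plate mean are called hits.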

Test system: HEK293A TEAD-LUC reporter
Experiment: TEAD-luciferase reporter activity (YAP activation), robust Z score vs plate; higher = stronger YAP/TEAD activation
Conditions: 24 h

SMILES | TEAD-luciferase reporter activity (compound concentration: 200 nM) | TEAD-luciferase reporter activity (compound concentration: 2 uM) | TEAD-luciferase reporter activity (compound concentration: 10 uM)
Cn1cc(-c2[nH]c3cc(NC(=O)[C@H](N)C4CCCCC4)cc4c3c2C=NNC4=O)cn1 | inactive: -0.501 | inactive: -1.2 | inactive: -1.46
CCN(CC)CCOCCOC(c1c(C)cccc1C)c1c(C)cccc1C | inactive: 0.612 | inactive: -0.954 | inactive: 0.784
COC12CCC(c3ccc(COC(C)(C)C(=O)O)cc3)(CC1)CC2 | inactive: -0.307 | inactive: 0.322 | inactive: -0.56
C/C(=C\c1ccccc1)CN/N=C(\C)C(=O)O | inactive: -1.67 | inactive: -1.59 | inactive: 0.202
CC(C)[C@H](NC(=O)[C@@H]1CSSC(C)(C)C(NC(=O)[C@@H](N)CC(=O)O)C(=O)N[C@@H](Cc2ccccc2)C(=O)N[C@H](Cc2c[nH]c3ccccc23)C(=O)NC(CCN)C(=O)N[C@@H](Cc2ccc(O)cc2)C(=O)N1)C(=O)O (stereo partly drawn) | inactive: -0.873 | inactive: -0.737 | inactive: -1.01
CC1(C)CCC(CN2CCN(c3ccc(C(=O)NS(=O)(=O)c4ccc(NCC5CCOCC5)c([N+](=O)[O-])c4)c(Oc4cnc5[nH]ccc5c4)c3)CC2)=C(c2ccc(Cl)cc2)C1 [chronic lymphocytic leukaemia therapy, AbbVie] | inactive: 2.1 | inactive: -1.57 | active: 5.8
CC(=O)SCC(CC(=O)c1ccc(C)cc1)C(=O)O (stereo not drawn) [Esonarimod] | inactive: -0.86 | inactive: 2.25 | inactive: 0.559
CCC(C(=O)O)c1ccc(N2Cc3ccccc3C2=O)cc1 (stereo not drawn) [indobufen] | inactive: -2.73 | inactive: -0.539 | inactive: -0.195
c1ccc(C(OC2CCN(CCCc3nnn[nH]3)CC2)c2ccccc2)cc1 | inactive: -3.69 | inactive: -0.38 | inactive: 1.77
CC(C)OC(=O)C(C(=O)OC(C)C)=C1SC=CS1 [malotilate] | inactive: 0.00115 | inactive: 0.807 | inactive: 0.596
CCCc1nc(C(F)(F)F)ccc1/C=C/C(=O)N[C@H](C)c1cc(F)c(NS(C)(=O)=O)c(F)c1 | inactive: 0.349 | inactive: 1.88 | inactive: 1.91
C[C@@H]1C[C@H]2[C@@H]3CCC4=CC(=O)C=C[C@]4(C)[C@@]3(Cl)[C@@H](O)C[C@]2(C)[C@@]1(OC(=O)c1ccco1)C(=O)CCl [mometasone furoate stent] |  | inactive: -0.0667 | 
O=C(C1CC1)N1CCC(C(=O)N2CCC(c3ccccc3)CC2)CC1 | inactive: 1.38 |  | inactive: -0.442
CCCC(=O)NCC(=O)N1CCCC1(C)C | inactive: -2.61 | inactive: -0.0368 | inactive: -1.84
CNC(=O)[C@H]1O[C@@H](n2cnc3c(NCc4cccc(I)c4)nc(Cl)nc32)[C@H](O)[C@@H]1O | inactive: -0.765 | inactive: -0.897 | inactive: -0.373
Nc1nc(F)nc2c1ncn2C1OC(CO)C(O)C1O (stereo not drawn) | inactive: -1.53 | inactive: -1.2 | inactive: -0.545
CC[C@H]1OC(=O)[C@H](C)[C@@H](O[C@H]2C[C@@](C)(OC)[C@@H](O)[C@H](C)O2)[C@H](C)[C@@H](O[C@@H]2O[C@H](C)C[C@H](N(C)C)[C@H]2O)[C@](C)(OC)C[C@@H](C)C(=O)[C@H](C)[C@@H](O)[C@]1(C)O [Clarithromycin] |  | inactive: -1.23 | 
CC[C@H]1OC(=O)[C@H](C)[C@@H](O[C@H]2C[C@@](C)(OC)[C@@H](O)[C@H](C)O2)[C@H](C)[C@@H](O[C@@H]2O[C@H](C)C[C@H](N(C)C)[C@H]2O)[C@](C)(OC)C[C@@H](C)C(=O)[C@H](C)[C@@H](O)[C@]1(C)O | inactive: -0.755 |  | inactive: -0.428
CC(=O)NC(=O)c1ccccc1O | inactive: -0.276 | inactive: -0.836 | inactive: -0.0611
Cc1ccc(S(=O)(=O)Nc2cc(C(=O)NC(C)(C)C)ccc2Oc2cc(F)c(CC(=O)O)cc2Cl)cc1 | inactive: -0.141 | inactive: -1.56 | inactive: -0.941
O=[N+]([O-])/C=C(\NC1CCCCC1)NS(=O)(=O)c1cnccc1NC1CCCCCC1 | inactive: -1.45 | inactive: 0.119 | inactive: 1.88
COc1ccc(Cl)cc1C(=O)N1CCN(c2cccc(Cl)c2)CC1 | active: 5.06 | inactive: -0.302 | inactive: 1.41
CSc1ccc(-c2nn(Cc3ccccc3)c(=O)cc2-c2ccc(Cl)cc2)cc1 | inactive: -1.58 | inactive: -1.1 | inactive: 0.422
C[C@@H](CN(c1ccccc1)S(=O)(=O)Cc1ccccc1)N1CCC(NC(=O)Cc2ccc(C#N)cc2)CC1 | inactive: 0.236 | inactive: -1.12 | inactive: 1.3
N#Cc1ccc(C(c2ccc(C#N)cc2)n2cncn2)cc1 [letrozole] |  | inactive: -1.08 | 
N#Cc1ccc(C(c2ccc(C#N)cc2)n2cncn2)cc1 | inactive: 0.353 |  | inactive: -0.561

Whole records from above:
C/C(=C\c1ccccc1)CN/N=C(\C)C(=O)O is listed as TEAD-luciferase reporter activity (compound concentration: 200 nM): inactive: -1.67; TEAD-luciferase reporter activity (compound concentration: 2 uM): inactive: -1.59; TEAD-luciferase reporter activity (compound concentration: 10 uM): inactive: 0.202
Nc1nc(F)nc2c1ncn2C1OC(CO)C(O)C1O (stereo not drawn) is listed as TEAD-luciferase reporter activity (compound concentration: 200 nM): inactive: -1.53; TEAD-luciferase reporter activity (compound concentration: 2 uM): inactive: -1.2; TEAD-luciferase reporter activity (compound concentration: 10 uM): inactive: -0.545
CC[C@H]1OC(=O)[C@H](C)[C@@H](O[C@H]2C[C@@](C)(OC)[C@@H](O)[C@H](C)O2)[C@H](C)[C@@H](O[C@@H]2O[C@H](C)C[C@H](N(C)C)[C@H]2O)[C@](C)(OC)C[C@@H](C)C(=O)[C@H](C)[C@@H](O)[C@]1(C)O is listed as TEAD-luciferase reporter activity (compound concentration: 200 nM): inactive: -0.755; TEAD-luciferase reporter activity (compound concentration: 10 uM): inactive: -0.428
N#Cc1ccc(C(c2ccc(C#N)cc2)n2cncn2)cc1 [letrozole] is listed as TEAD-luciferase reporter activity (compound concentration: 2 uM): inactive: -1.08

Further entries:

SMILES | TEAD-luciferase reporter activity (compound concentration: 200 nM) | TEAD-luciferase reporter activity (compound concentration: 2 uM) | TEAD-luciferase reporter activity (compound concentration: 10 uM)
O=C(O)Cc1cccc(-c2cc(CCCCCCc3ccc(O[C@H]4O[C@H](CO)[C@@H](O)[C@H](O)[C@@H]4O)c(-c4cccc(CC(=O)O)c4)c3)ccc2O[C@H]2O[C@H](CO)[C@@H](O)[C@H](O)[C@@H]2O)c1 [bimosiamose] | inactive: -1.46 | inactive: -0.457 | inactive: 0.721
CSc1ncnc2c1ncn2[C@@H]1O[C@H](CO)[C@@H](O)[C@H]1O | inactive: -1.22 | inactive: -1.8 | inactive: -1.92
CCN(CCCN(C)c1nc(-n2ccnc2)ns1)Cc1ccc2c(c1)OCO2 | inactive: -0.863 | inactive: -1.16 | inactive: 0.888
O=S(c1cc(Cl)cc(Cl)c1O)c1cc(Cl)cc(Cl)c1O [Bithionol sulfoxide] | inactive: -0.869 |  | inactive: 0.0813
O=S(c1cc(Cl)cc(Cl)c1O)c1cc(Cl)cc(Cl)c1O |  | inactive: -1.79 | 
CC[C@H](C)[C@H](N)C(=O)N[C@@H](CCC(=O)O)C(=O)N[C@@H](Cc1c[nH]c2ccccc12)C(=O)O [Neogen] | inactive: -0.522 | inactive: 0.957 | inactive: 0.132
C/C(=C\c1ccc(Cc2cccnc2)cc1)C(=O)O | inactive: 0.0958 | inactive: -0.559 | inactive: -1.2
O=C(O)CCNC(=O)[C@H](Cc1ccccc1)N[C@@H](Cc1ccccc1)C(=O)O | inactive: 0.0131 | inactive: -0.334 | inactive: -1.22
CC(=O)N[C@@H](CCCNC(=N)N)C(=O)N[C@H]1CSSC[C@@H](C(N)=O)NC(=O)[C@H](Cc2c[nH]c3ccccc23)NC(=O)[C@H](CCCNC(=N)N)NC(=O)[C@@H](Cc2ccccc2)NC(=O)[C@H](Cc2cnc[nH]2)NC(=O)[C@@H](C)NC1=O [Setmelanotide] | inactive: -0.877 | inactive: -0.12 | inactive: -0.466
CC(=O)NC[C@H]1CC(c2ccc(-c3ccncc3)cc2)=NO1 | inactive: -0.709 |  | inactive: 1.02
Nc1ccc(C#Cc2cnn3c(C(F)(F)F)cc(-c4ccc(C(F)(F)F)cc4)nc23)cn1 [Decoglurant] | inactive: -0.525 | inactive: -1.05 | inactive: 1.43
Cc1cc(C)cc(-c2ccc(CN3CCCC(NC(=O)c4ccccc4Cl)C3)cc2)c1 (stereo not drawn) | inactive: -0.226 |  | inactive: 1.73
Cc1nc2cc(NC(=O)c3ccc(Cl)cc3)ccc2n1C | inactive: 1.54 | inactive: -2.81 | inactive: -1
CCOc1ccc(Cc2nccc3cc(OCC)c(OCC)cc23)cc1OCC [Ethaverine] |  | inactive: 2.08 | 
CCOc1ccc(Cc2nccc3cc(OCC)c(OCC)cc23)cc1OCC | inactive: 0.621 | inactive: -2.3 | inactive: 0.864
C=C1C[C@H](N)[C@H](C(=O)O)C1 [Icofungipen] | inactive: -1.15 | inactive: -1.16 | inactive: 2.96
COC(=O)[C@H](C/C=C/c1ccc(N(C)c2ncccn2)cc1)NC(=O)c1c(F)cccc1F | inactive: 0.963 | inactive: -0.544 | inactive: 0.888
O=S(=O)([O-])[O-] [Copper(II) sulfate] | inactive: -1.19 |  | inactive: -0.81
O=S(=O)([O-])[O-] [Zinc sulfate] |  | inactive: -0.791 | 
CCCc1c(OCCCS(=O)(=O)c2ccc(C(=O)CCC(=O)O)cc2)ccc(C(C)=O)c1O | inactive: 1.47 | inactive: -1.2 | active: 6.18
O=C1CCc2cc(C(=O)N3CCN(Cc4ccccc4)CC3)ccc2N1 | inactive: 0.508 | inactive: 0.385 | inactive: -1.98
CS(=O)(=O)NC(=O)C(c1cccc(OCc2ccc3ccccc3n2)c1)C1CCCCCC1 (stereo not drawn) | inactive: 0.497 | inactive: 0.343 | inactive: 0.51
OC(CSc1ncnc2[nH]cnc12)CN1CCN(C(c2ccc(F)cc2)c2ccc(F)cc2)CC1 (stereo not drawn) | inactive: 2.34 |  | inactive: 4.69
OC(CSc1ncnc2[nH]cnc12)CN1CCN(C(c2ccc(F)cc2)c2ccc(F)cc2)CC1 (stereo not drawn) [carsatrin] |  | inactive: 4.17 | 
CCCN1CCCC[C@H]1C(=O)Nc1c(C)cccc1C [Ropivacaine hydrochloride] | inactive: -0.71 |  | inactive: -0.645
COc1ccc(C(=O)Nc2c(Cl)cncc2Cl)c2cccnc12 | inactive: -0.821 | inactive: 0.311 | inactive: 0.229
